# The whole screen tested about 580,000 compounds, of which about 6,100 (1.1%) were called active. This list was built around the results that the source calls inconclusive (neither active nor inactive); the mix of calls is not that of the screen. The call rests on the fitted dose curve; in most records, active means well fitted inhibition curve with a large enough effect; inconclusive means small, poorly fitted or top-dose-only effect, or another doubt; inactive means no such curve, though single readings can be large or run the other way. Where the call is inconclusive, the potency comes from a doubtful curve fit.
# Sequences of proteins named here, by UniProt entry; tags and fusion partners are left off. A change or cut given only in a name is not applied to a line headed by its entry.
# UniProt P18054: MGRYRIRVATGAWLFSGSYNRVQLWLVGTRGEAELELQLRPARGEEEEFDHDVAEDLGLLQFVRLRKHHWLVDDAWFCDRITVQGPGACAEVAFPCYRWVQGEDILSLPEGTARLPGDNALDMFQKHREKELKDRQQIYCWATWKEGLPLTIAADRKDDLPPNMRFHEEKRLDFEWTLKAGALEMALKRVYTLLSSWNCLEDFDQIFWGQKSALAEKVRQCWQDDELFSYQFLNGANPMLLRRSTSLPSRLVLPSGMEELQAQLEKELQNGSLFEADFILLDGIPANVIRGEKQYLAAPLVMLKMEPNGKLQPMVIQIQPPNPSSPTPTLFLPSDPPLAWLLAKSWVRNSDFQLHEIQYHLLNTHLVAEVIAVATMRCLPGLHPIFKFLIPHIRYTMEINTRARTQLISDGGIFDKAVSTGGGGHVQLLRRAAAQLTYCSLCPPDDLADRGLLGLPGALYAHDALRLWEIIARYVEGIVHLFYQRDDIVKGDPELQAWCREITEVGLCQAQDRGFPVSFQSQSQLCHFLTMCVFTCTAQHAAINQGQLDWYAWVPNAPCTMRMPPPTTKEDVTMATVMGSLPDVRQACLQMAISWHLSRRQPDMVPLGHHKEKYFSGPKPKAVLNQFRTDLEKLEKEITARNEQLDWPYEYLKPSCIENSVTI
# Target: Polyunsaturated fatty acid lipoxygenase ALOX12 (Homo sapiens) (UniProt P18054)
# Assay: Primary qHTS assay for inhibitors of human arachidonate 12S-lipoxygenase (ALOX12): Round 2
# Conditions: purified 12hLO, xylenol orange hydroperoxide absorbance; activity change, negative = inhibition: at 108 µM (top of the series) unless noted
# Outline: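 Purified human 12hLO (150 nM final) in 25 mM Hepes, 0.01% Triton X-100, pH 7.0 was preincubated 15 min at room temperature with compound. Then 40 uM arachidonic acid was added, 30 min. Hydroperoxide was read by Fe-XO absorbance ratio 573/405 nm.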
# On the % scale 0 is the no-effect control and ±100 the full control effect; potency means the concentration at half of the fitted maximal effect.
SMILES,Potency,"activity change, negative = inhibition"
Cc1ccc(S(=O)(=O)/C(C#N)=C/c2c(N3CCN(C)CC3)nc3c(C)cccn3c2=O)cc1,"inconclusive: 44.7 µM [inhibitor, partial curve, poor fit]",–
COc1cc2c(cc1OC)C(c1ccc(C)o1)CC(=O)N2 (stereo unspecified),"inconclusive: 31.6 µM [inhibitor, partial curve, poor fit]",–
COc1cccc(/C=C/c2onc(C)c2S(=O)(=O)N2CCC(C(=O)N3CCC(C)CC3)CC2)c1,"inconclusive: 126 µM [inhibitor, partial curve, poor fit]",–
CC(=O)c1ccc(C(=O)N2CCCC(C(=O)c3cccc(C(F)(F)F)c3)C2)s1 (stereo unspecified),–,inactive: 58.8%
CCOC(=O)c1c(NC(C)=O)sc2c(OCC(=O)Nc3ccccc3C)c(C)ccc12,–,inactive: 4.61%
COCCCNCCCCOc1ccc(Br)cc1C,"inconclusive: 0.447 µM [inhibitor, full curve, poor fit]",–
O=C(O)Cn1c(=O)c(-c2ccccc2)nc2ccccc21,"inconclusive: 35.5 µM [inhibitor, partial curve, poor fit]",–
Cn1c(N)c(C(C[N+](=O)[O-])c2ccccc2Cl)c(=O)n(C)c1=O (stereo unspecified),"inconclusive: 100 µM [inhibitor, single point]",–
Cc1ccc(C(=O)NC2CCN(c3cc(-c4ccc(F)cc4)[nH]n3)C2)cc1C (stereo unspecified),–,inactive: 0.576%
C=CCC1[C@H](C)[C@H]2[C@@H]3CC[C@@H](C3)[C@H]2CN1S(=O)(=O)c1ccc(C)cc1 (stereo partly specified),–,inactive: 14.1%
Cc1c(Cc2ccccc2)c(=O)oc2cc(OCC(=O)O)ccc12,"inconclusive: 100 µM [inhibitor, single point]",–
COc1ccc(C(=O)/C(=C/c2ccncc2)c2nc3ccccc3o2)cc1OC,"inconclusive: 50.1 µM [inhibitor, partial curve, poor fit]",–
Cc1[nH]c2ccccc2c1C(=O)C(C)OC(=O)c1ccccc1NCCO (stereo unspecified),"inconclusive: 79.4 µM [inhibitor, partial curve, poor fit]",–
O=C(NC1CCCC1)C1c2ccccc2OCC(=O)N1Cc1ccco1 (stereo unspecified),"inconclusive: 79.4 µM [inhibitor, single point]",–
CCN1CCC(N(Cc2ccco2)C(=O)Nc2cc(Cl)ccc2C)CC1,"inconclusive: 56.2 µM [inhibitor, partial curve, poor fit]",–
CC(CNC(=O)Cc1ccc(NC(=O)N2CCSc3ncccc32)cc1)c1ccccc1 (stereo unspecified),"inconclusive: 141 µM [inhibitor, partial curve, poor fit]",–
COC(=O)N1[C@H](C)C=C[C@]1(Cc1ccccc1)C(=O)NCCCNc1ncc(C(F)(F)F)cc1Cl,"inconclusive: 100 µM [inhibitor, single point]",–
Cn1c(SCc2coc(-c3cccs3)n2)nnc1-c1ccccc1F,–,inactive: -17.7%
CCc1c(C)sc(NC(=O)CSCC(=O)O)c1C(N)=O,"inconclusive: 25.1 µM [inhibitor, full curve, poor fit]",–
COc1ccc(C(=O)N(Cc2cc3ccc(C)cc3[nH]c2=O)c2ccc(C)cc2)cc1OC,"inconclusive: 5.01 µM [inhibitor, full curve, poor fit]",–
Cc1cc(C)c(C(=O)NCC(N)=O)c(=O)[nH]1,"inconclusive: 17.8 µM [inhibitor, full curve, poor fit]",–

# Whole records, quoted from the list. Order of values: Potency | activity change, negative = inhibition
# CCc1c(C)sc(NC(=O)CSCC(=O)O)c1C(N)=O is listed as inconclusive: 25.1 µM [inhibitor, full curve, poor fit] | –
# Cn1c(SCc2coc(-c3cccs3)n2)nnc1-c1ccccc1F is listed as – | inactive: -17.7%
# CC(CNC(=O)Cc1ccc(NC(=O)N2CCSc3ncccc32)cc1)c1ccccc1 (stereo unspecified) is listed as inconclusive: 141 µM [inhibitor, partial curve, poor fit] | –

# The listing continues:

SMILES,Potency,"activity change, negative = inhibition"
O=C(Nc1c(F)cc(F)cc1Br)C1CCN(C(=O)N2CCOc3ccccc32)CC1,"inconclusive: 112 µM [inhibitor, single point]",–
CCN(Cc1ccccc1)c1ccc(/C=N/NC(=O)c2cccc(S(=O)(=O)N3CCOCC3)c2)cc1,–,inactive: 2.28%
CC(C)c1ccc(OCC(=O)Nc2cccc(C(=O)Nc3ccccc3C(=O)O)c2)cc1,"inconclusive: 79.4 µM [inhibitor, partial curve, poor fit]",–
CCOC(=O)c1ccccc1N1C(=O)C2Sc3[nH]c(=O)sc3C(/C=C/c3ccccc3)C2C1=O (stereo unspecified),"inconclusive: 112 µM [inhibitor, partial curve, poor fit]",–
c1csc(CNc2cc(-c3ccoc3)ncn2)c1,"inconclusive: 6.31 µM [inhibitor, full curve, poor fit]",–
N#CCC(=O)N/N=C/c1cc(-c2ccccc2)n(-c2ccc(Cl)cc2)c1-c1ccccc1,"inconclusive: 50.1 µM [inhibitor, partial curve, poor fit]",–
Cc1ccc(N2C(=O)CC(c3cccs3)C3=C2CCCC3=O)cc1 (stereo unspecified),–,inactive: -2.2%
CCCCN1CCCCC1CNc1ccc2nnnn2n1 (stereo unspecified),–,inactive: -2.18%
Cc1ccc(C(CNC(=O)COc2cc(C)cc(C)c2)N2CCCCC2)cc1 (stereo unspecified),"inconclusive: 44.7 µM [inhibitor, partial curve, poor fit]",–
COc1cccc(-c2nc(NC(C)C)c3ccccc3n2)c1O,"inconclusive: 44.7 µM [inhibitor, partial curve, poor fit]",–
Cc1cc(C)nc(NC(=O)/C=C/c2cccs2)c1,–,inactive: -9.15%
COc1ccc(C)cc1NC(=O)NCc1cccn1Cc1ccccc1,–,inactive: -13.9%
CC1=NN(C(N)=S)C(=O)C1N=Nc1c(Cl)cc([N+](=O)[O-])cc1Cl (stereo unspecified),"inconclusive: 39.8 µM [inhibitor, partial curve, poor fit]",–
O=S(=O)(NCCc1cn2ccccc2n1)c1ccc(Cl)cc1C(F)(F)F,"inconclusive: 31.6 µM [inhibitor, single point]",–
Cc1ccc(CN2CCC(CNC(=O)Nc3cccc(Cl)c3C)C2)cc1 (stereo unspecified),"inconclusive: 17.8 µM [inhibitor, full curve, poor fit]",–
CCOC(=O)C(=CNc1cccnc1Oc1ccc(C)c2c1CCC2)C(=O)OCC,"inconclusive: 112 µM [inhibitor, single point]",–
O=C(NCC(c1ccco1)N1CCc2ccccc21)c1cccc(F)c1 (stereo unspecified),"inconclusive: 3.16 µM [inhibitor, full curve, poor fit]",–
COCCN(C(=O)CCl)C(C(=O)NC1CCCCC1)c1ccccc1C (stereo unspecified),–,inactive: -20.9%
COc1ccc(C)cc1NC(=O)CSc1nc2ccccc2nc1N1CCOCC1,–,inactive: 2.76%
CN=C1NN=C(c2cc(C)n(-c3ccc(Cl)cc3)c2C)CS1,"inconclusive: 39.8 µM [inhibitor, partial curve]",–

# Source: PubChem BioAssay AID1671190 (National Center for Advancing Translational Sciences (NCATS), 2021)
